Results are given in words; binding and its absence hold for the method and conditions named. In cells and extracts the contact can be indirect. Some binding calls cover weakened binding; strength is not graded here. Where a sequence is shown, tags or fusion partners need not be part of it.
target: T1, Flag-DRG1 (developmentally regulated GTP binding protein 1) (UniProt Q9Y295); assay: co-IP; A549, H1299 and HeLa cells transfected with vector or Flag-DRG1, lysed after 48 h in HEPES lysis buffer (20 mM HEPES pH 7.2, 50 mM NaCl, 0.5% Triton X-100, 1 mM NaF, 1 mM DTT, protease inhibitors); immunoprecipitation with Flag antibody 4 h at 4°C, protein A/G-agarose overnight at 4°C; immunoblot with antibodies to the endogenous proteins
T1 sequence: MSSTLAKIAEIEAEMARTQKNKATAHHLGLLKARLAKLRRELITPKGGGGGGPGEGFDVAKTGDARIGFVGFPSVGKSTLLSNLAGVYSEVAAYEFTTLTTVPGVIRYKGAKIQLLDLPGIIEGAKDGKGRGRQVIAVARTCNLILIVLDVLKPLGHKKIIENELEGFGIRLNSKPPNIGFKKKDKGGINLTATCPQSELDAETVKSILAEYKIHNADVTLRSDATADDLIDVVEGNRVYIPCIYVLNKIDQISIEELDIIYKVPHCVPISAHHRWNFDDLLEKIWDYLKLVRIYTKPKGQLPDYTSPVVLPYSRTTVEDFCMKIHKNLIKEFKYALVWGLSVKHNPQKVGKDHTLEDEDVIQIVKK

By UniProt entry, the sequences of proteins in these tests, tags left out.
UniProt O60566: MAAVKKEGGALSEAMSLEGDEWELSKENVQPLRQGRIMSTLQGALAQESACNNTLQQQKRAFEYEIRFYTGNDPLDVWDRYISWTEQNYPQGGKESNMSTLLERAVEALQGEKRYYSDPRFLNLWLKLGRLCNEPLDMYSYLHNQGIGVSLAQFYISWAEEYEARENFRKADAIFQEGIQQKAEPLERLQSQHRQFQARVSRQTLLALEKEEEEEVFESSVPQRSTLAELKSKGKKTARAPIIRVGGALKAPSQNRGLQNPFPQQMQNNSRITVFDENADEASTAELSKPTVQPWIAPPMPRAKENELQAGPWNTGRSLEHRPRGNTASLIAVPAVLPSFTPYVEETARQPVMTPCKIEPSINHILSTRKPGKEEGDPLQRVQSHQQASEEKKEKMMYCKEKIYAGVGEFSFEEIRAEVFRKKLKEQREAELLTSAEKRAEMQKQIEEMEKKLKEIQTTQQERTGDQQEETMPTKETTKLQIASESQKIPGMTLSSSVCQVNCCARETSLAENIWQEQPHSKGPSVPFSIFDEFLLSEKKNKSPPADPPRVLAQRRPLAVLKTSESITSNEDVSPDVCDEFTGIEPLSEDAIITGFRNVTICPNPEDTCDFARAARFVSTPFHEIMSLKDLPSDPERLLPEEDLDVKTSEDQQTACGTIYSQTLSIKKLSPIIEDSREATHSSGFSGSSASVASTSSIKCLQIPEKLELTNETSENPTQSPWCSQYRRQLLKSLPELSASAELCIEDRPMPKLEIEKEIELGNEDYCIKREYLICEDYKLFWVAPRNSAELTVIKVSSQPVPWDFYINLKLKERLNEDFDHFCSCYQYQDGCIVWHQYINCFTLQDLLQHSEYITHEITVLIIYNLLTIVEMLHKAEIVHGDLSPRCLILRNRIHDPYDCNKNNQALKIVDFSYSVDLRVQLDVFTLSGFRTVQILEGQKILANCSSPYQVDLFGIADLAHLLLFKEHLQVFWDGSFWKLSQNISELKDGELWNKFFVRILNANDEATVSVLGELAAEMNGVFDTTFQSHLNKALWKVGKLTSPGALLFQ
UniProt Q96H22: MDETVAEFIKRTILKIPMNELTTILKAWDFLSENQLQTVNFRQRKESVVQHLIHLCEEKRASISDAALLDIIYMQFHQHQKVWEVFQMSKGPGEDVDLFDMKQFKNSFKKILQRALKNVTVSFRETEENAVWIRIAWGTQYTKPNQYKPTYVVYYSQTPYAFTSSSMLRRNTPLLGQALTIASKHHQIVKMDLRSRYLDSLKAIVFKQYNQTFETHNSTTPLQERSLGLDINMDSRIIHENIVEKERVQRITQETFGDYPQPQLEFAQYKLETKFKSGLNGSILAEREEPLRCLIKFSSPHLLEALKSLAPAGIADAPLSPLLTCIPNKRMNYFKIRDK
UniProt Q13257: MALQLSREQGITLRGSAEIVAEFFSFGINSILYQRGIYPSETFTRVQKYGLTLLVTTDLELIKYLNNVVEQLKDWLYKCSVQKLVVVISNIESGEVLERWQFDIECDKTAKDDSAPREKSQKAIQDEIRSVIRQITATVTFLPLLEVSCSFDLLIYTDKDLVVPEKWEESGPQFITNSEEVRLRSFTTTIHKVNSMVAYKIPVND

binding, binds:
BubR1 (from UniProt O60566 1-1050)
CENPN (centromere protein N) (from UniProt Q96H22 1-339)
Mad2 (MAD2 mitotic arrest deficient-like 1) (from UniProt Q13257 1-205)
